Data reported in publication doi:10.1101/2023.06.10.544440.
No constants are given. Whether binding was seen depends on the method and setting. Binding seen in cells or lysates may run through a third protein. A result given as binding can be weak or reduced; the word gives no strength.

Biological target: zebrafish eIF4E1c (49-230) (zebrafish)
Test: pull-down

PHRYTKEELLDIKELPHSKQRPSCLSEKYDSDGVWDP (domain or fragment, UniProt Q9NRA8 27-63) [eIF4E-binding motif of human eIF4ENIF1 (27-63)]
binding: binds
